From ChEMBL document CHEMBL3988442, “University of Dundee, Small-Polar-MMV Screening Library” (2021).

Sequences of proteins named here, by UniProt entry; tags and fusion partners are left off.
UniProt E9BF75, entry or part of it: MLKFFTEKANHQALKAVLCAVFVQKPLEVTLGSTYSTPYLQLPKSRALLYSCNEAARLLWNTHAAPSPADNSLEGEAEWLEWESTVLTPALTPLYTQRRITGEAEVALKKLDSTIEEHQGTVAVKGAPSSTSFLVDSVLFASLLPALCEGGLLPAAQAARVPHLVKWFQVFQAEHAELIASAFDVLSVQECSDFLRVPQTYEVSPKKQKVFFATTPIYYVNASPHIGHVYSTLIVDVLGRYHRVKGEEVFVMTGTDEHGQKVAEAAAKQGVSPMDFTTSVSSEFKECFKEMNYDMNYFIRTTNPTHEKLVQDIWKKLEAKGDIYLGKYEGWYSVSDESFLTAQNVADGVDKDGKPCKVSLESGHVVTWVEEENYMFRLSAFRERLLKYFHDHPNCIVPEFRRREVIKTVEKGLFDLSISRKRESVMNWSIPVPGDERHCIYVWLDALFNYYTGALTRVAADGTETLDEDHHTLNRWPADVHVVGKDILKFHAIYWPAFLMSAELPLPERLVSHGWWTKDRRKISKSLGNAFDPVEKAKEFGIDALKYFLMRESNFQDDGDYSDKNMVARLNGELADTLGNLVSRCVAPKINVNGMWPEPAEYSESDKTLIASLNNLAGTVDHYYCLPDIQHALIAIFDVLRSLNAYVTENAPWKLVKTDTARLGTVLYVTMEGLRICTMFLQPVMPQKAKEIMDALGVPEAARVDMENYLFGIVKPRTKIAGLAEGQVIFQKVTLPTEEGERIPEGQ

Mtb heat-shock: 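Assay on Mycobacterium tuberculosis, filed only as a heat shock assay from Cornell; the read-out is not stated. The concentration is filed as 10 mM, unlikely as a test dose, so the dose is not known. The record gives no direction; compounds that gave an IC50 in retests scored well above the rest, so higher reads as stronger inhibition. Of about 69,000 compounds tested this way, about 930 (1.4%) reached 50% or more in at least one test.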
LdMetRS: 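Methionyl-tRNA synthetase (putative), Leishmania donovani (UniProt E9BF75). Primary screen of methionyl-tRNA synthetase; the read-out is not stated. The test concentration is not given. Values are per cent inhibition. About 68,000 compounds were tested under these conditions; 0.035% (about 24) showed 50% or more at least once.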
Mtb growth Cornell: 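Whole-cell assay for inhibitors of Mycobacterium tuberculosis growth, labelled Cornell in the record; the read-out is not stated. The concentration is filed as 10 mM, unlikely as a test dose, so the dose is not known. The record gives no direction; compounds strong in two other growth screens of this library score well above the rest, so higher reads as stronger inhibition. Size under these conditions: about 53,000 compounds, about 900 of them at 50% or above in at least one test.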

All values are in %.
The record does not define 0% and 100%; most values in the screen are far below 50% and negative numbers occur (in some assays of this library far below -100).
The compounds are a random part of those screened.

* CCOc1ccc(NC(C)=O)cc1S(=O)(=O)Nc1ccon1 | Mtb heat-shock: 20.83%; LdMetRS: 12.59%; Mtb growth Cornell: 24.58%
* Cc1nc(C)c(C(=O)N2Cc3ccccc3OCC2Cn2ccnc2)o1 (stereo not drawn) | Mtb heat-shock: -1.47%; LdMetRS: 16.19%; Mtb growth Cornell: 4.132%
* CC(=O)N(C)Cc1nn(C)c2c1CN(Cc1ccsc1)C2 | LdMetRS: 12.94%
* CN(Cc1ccccc1F)C(=O)Cn1cc(NC(=O)C(C)(C)C)cn1 | Mtb heat-shock: -26.47%; LdMetRS: -1.344%
* CCN1CC(C(=O)N2CCc3cc(C(N)=O)n(C)c3C2)CC1=O (stereo not drawn) | Mtb heat-shock: 13.3%; LdMetRS: 4.632%; Mtb growth Cornell: -35.3%
* Cc1cnn(CC2CN(c3ncnc4[nH]ccc34)CCO2)c1 (stereo not drawn) | Mtb heat-shock: -4.942%; LdMetRS: 18.62%; Mtb growth Cornell: 4.551%
* Cc1ncsc1CN1C[C@H](OCC(C)C)[C@H]2OCCC[C@H]21 | LdMetRS: 7.216%
* Cc1nc(C)c2c(n1)CCN(Cc1nccn1C)CC2 | LdMetRS: 18.18%
* O=C1CCC(c2ccccc2)=NN1CN1CCCCCC1 | Mtb heat-shock: -54.6%; LdMetRS: 6.799%; Mtb growth Cornell: 7.438%
* c1cc(C2CN(C3CCCCC3)C2)n[nH]1 | Mtb heat-shock: -11.95%; LdMetRS: 1.246%; Mtb growth Cornell: -23.74%
* COCCNC(=O)[C@@]12CCO[C@@H]1CCN(Cc1ccc(OC)cc1)C2 | LdMetRS: 6%
* Cc1nc(=O)c2ccccc2n1C1=CCN(CC(=O)NC(C)C)CC1 | Mtb heat-shock: -7.259%; LdMetRS: 17.3%; Mtb growth Cornell: 26.87%
* NC(=O)NC(=O)CCN1C(=O)CC(Cc2ccc(F)cc2)C1=O (stereo not drawn) | Mtb heat-shock: -0.7373%; LdMetRS: 12.37%; Mtb growth Cornell: 6.801%
* [H][C@@]12CCCO[C@]1([H])[C@@H](NC(=O)c1cnn(C)c1)CN2S(C)(=O)=O | Mtb heat-shock: -1.225%; Mtb growth Cornell: 11.01%
* O=C(c1[nH]nc2c1CCCC2)N1CCC(OCCN2CCCCC2)C1 (stereo not drawn) | Mtb heat-shock: -9.168%; LdMetRS: 5.59%; Mtb growth Cornell: 9.52%
* CN(CC(O)CO)c1nc(-c2cccnc2)nc2c1CCNC2 (stereo not drawn) | Mtb heat-shock: -18.95%; LdMetRS: 4.658%
* Cc1cccc(OCCNC(=O)CN2CCCC2Cn2cccn2)c1 (stereo not drawn) | Mtb heat-shock: -4.56%; LdMetRS: 11.02%; Mtb growth Cornell: 14.49%
* [H][C@@]12CN(S(=O)(=O)c3ccc(F)cc3)C[C@@]1([H])OCC(=O)N2 | Mtb heat-shock: 18.43%; Mtb growth Cornell: -28.48%
* CC(=O)N1CCN(CCCSCc2ccccc2)CC1 | Mtb heat-shock: -53.11%; LdMetRS: -1.37%
* CC(C)(CNC(=O)Nc1cccc(-c2nccs2)c1)C(N)=O | Mtb heat-shock: 6.282%; LdMetRS: 11.91%; Mtb growth Cornell: 28.75%
* CNC(=O)C(C)(C)N1CCC[C@H]1C(=O)NCCN(C)C.Cl | Mtb heat-shock: -44.07%
* Cc1cnc(C(=O)N2CCC3(CC2)C(=O)NCCN3CC(C)C)cn1 | Mtb heat-shock: -9.529%; LdMetRS: 19.71%; Mtb growth Cornell: -26.5%
* COCCN1CCC2(COCc3cnc(N(C)C)nc32)C1 (stereo not drawn) | LdMetRS: 2.256%
* [H][C@]12CC[C@]([H])(CN(C(=O)N(C)C)C1)N(S(=O)(=O)c1cccnc1)C2 | Mtb heat-shock: -21.11%; Mtb growth Cornell: 7.923%
* CCCNC(=O)Cc1c(C)nc2c(c1C)c(=O)[nH]n2C | Mtb heat-shock: -1.676%; LdMetRS: 24.22%
* CC1CCN(c2cc(CCC3CCCN3)ncn2)CC1.Cl (stereo not drawn) | Mtb heat-shock: -19.69%; Mtb growth Cornell: 23.34%
* O=c1n(CCn2cccc2)nc(C2CCNCC2)n1Cc1ccccc1 | Mtb heat-shock: -7.121%; LdMetRS: 14.29%
* [H][C@@]12CCN(C(=O)c3ccoc3C)C[C@@]1([H])O[C@H](c1nnc(C3CC3)o1)C2 | Mtb heat-shock: 15.14%; Mtb growth Cornell: -10.27%
* CC(C)N(CC(C)(C)O)C(=O)NC1CC1 | Mtb heat-shock: 9.455%; LdMetRS: 15.79%; Mtb growth Cornell: 14.42%
* c1cnc(NCc2nnn3c2CN(Cc2ccco2)CCC3)nc1 | LdMetRS: 17.96%
* CC(=O)N(C)C1CCN(C(=O)NCC(C)Cc2cccs2)CC1 (stereo not drawn) | Mtb heat-shock: 6.957%
* CC(=O)NCCNC(=O)Nc1ccc(C)cc1OCc1ccccc1 | Mtb heat-shock: 17.65%; LdMetRS: 9.42%; Mtb growth Cornell: -0.3924%
* Clc1ccc2cccnc2c1CNC1CCc2ncnn2C1 (stereo not drawn) | Mtb heat-shock: 4.35%; LdMetRS: 12.04%
* CC(CNC(=O)c1cc(Cn2cnc3ccccc32)[nH]n1)N1CCCC1 (stereo not drawn) | Mtb heat-shock: -61.8%; LdMetRS: 18.43%

For reference, 4 entries once more:

{"compound": "COCCN1CCC2(COCc3cnc(N(C)C)nc32)C1", "stereo": "stereo not drawn", "LdMetRS": 2.256}
{"compound": "Cc1nc(C)c(C(=O)N2Cc3ccccc3OCC2Cn2ccnc2)o1", "stereo": "stereo not drawn", "Mtb heat-shock": -1.47, "LdMetRS": 16.19, "Mtb growth Cornell": 4.132}
{"compound": "Cc1cccc(OCCNC(=O)CN2CCCC2Cn2cccn2)c1", "stereo": "stereo not drawn", "Mtb heat-shock": -4.56, "LdMetRS": 11.02, "Mtb growth Cornell": 14.49}
{"compound": "CCOc1ccc(NC(C)=O)cc1S(=O)(=O)Nc1ccon1", "Mtb heat-shock": 20.83, "LdMetRS": 12.59, "Mtb growth Cornell": 24.58}